Test results published in publication PMC4395201.
Positions count from the first letter of the chain named. Names may count otherwise. Results are given in words; binding and its absence hold for the method and conditions named. In cells and extracts the contact can be indirect. Binding can be weak; no strength is given.

B1: Hemojuvelin, wild type (protein, UniProt Q6ZVN8 36-400)
chain: QCKILRCNAEYVSSTLSLRGGGSSGALRGGGGGGRGGGVGSGGLCRALRSYALCTRRTARTCRGDLAFHSAVHGIEDLMIQHNCSRQGPTAPPPPRGPALPGAGSGLPAPDPCDYEGRFSRLHGRPPGFLHCASFGDPHVRSFHHHFHTCRVQGAWPLLDNDFLFVQATSSPMALGANATATRKLTIIFKNMQECIDQKVYQAEVDNLPVAFEDGSINGGDRPGGSSLSIQTANPGNHVEIQAAYIGTTIIIRQTAGQLSFSIKVAEDVAMAFSAEQDLQLCVGGCPPSQRLSRSERNRRGAITIDTARRLCKEGLPVEDAYFHSCVFDVLISGDPNFTVAAQAALEDARAFLPDLEKLHLFPSD
B2: Hemojuvelin R288A (protein, UniProt Q6ZVN8 36-400)
chain: B1 chain with R253A
B3: Hemojuvelin R176A (protein, UniProt Q6ZVN8 36-400)
chain: B1 chain with R141A
B4: Hemojuvelin R326A (protein, UniProt Q6ZVN8 36-400)
chain: B1 chain with R291A
B5: Hemojuvelin R121A (protein, UniProt Q6ZVN8 36-400)
chain: B1 chain with R86A
B6: Hemojuvelin R257A (protein, UniProt Q6ZVN8 36-400)
chain: B1 chain with R222A
B7: Hemojuvelin R218A (protein, UniProt Q6ZVN8 36-400)
chain: B1 chain with R183A

molecular target: TMPRSS6^MASK, lacking the serine protease domain; experiment: co-IP; HeLa cells cotransfected with wild-type or mutant HJV and TMPRSS6^MASK (ratio 1:1); lysed after 36 hrs in NET/Triton buffer; 500 ug of total lysate on anti-FLAG M2 agarose, 2 hrs at 4°C, three washes; blots with anti-HJV and anti-FLAG

binding, binds:
B1, B2, B3, B4, B5, B6, B7
